Test results: PubChem BioAssay AID248 (DTP/NCI, 2004)
The list is a part of this screen's results and no random one: it is rich in T/C values a quarter to a half above the control, in often repeated tests (any T/C) and in doses without a T/C. Further doses and runs are listed elsewhere. T/C: endpoint of the treated group in % of that of the vehicle group. Some doses have a count of surviving animals in place of a T/C: the source holds a T/C of zero for them, seemingly a mark for toxic or unscored doses. Some doses without a T/C left all or most animals alive at the check, yet need not have been tolerated: the source hardly ever lists a survival T/C far under the control, and the zero likely stands for such cases as well. Counts of survivors are from the toxicity check (mostly the fifth day) where no day follows; animals may have died later. Schedule codes are those of the source, taken here to give the interval after Q, in days (D) or hours (H), and the number of doses after X. Some entries were tested several times; the values are given in rising order. Signs of the kind (2×) count equal records among those shown. Where survival is the endpoint, the PubChem record calls one and a half times the control and up active, and a quarter to a half above the control has no call in these data; cut-offs in other NCI protocols can differ. Some T/C values carry the count of animals alive at the toxicity check (mostly the fifth day); where none is given, no animal had died by that day. Some schedule codes hold Z or #, which are not explained here.

Tested on: L1210 leukemia ip in BDF1 mice, survival T/C
Test: NCI In Vivo Anticancer Drug Screen. Data for tumor model L1210 Leukemia (intraperitoneal) in B6D2F1 (BDF1) mice
Details: T/C endpoint: median survival time, higher T/C = longer survival

COc1cccc2c1C(=O)c1c(O)c3c(c(O)c1C2=O)C[C@@](O)(C(=O)CO)C[C@@H]3OC1CC(N)C(O)C(C)O1 (some centres undefined) was tested, and the T/C (dose: 1.8 mg/kg/injection, schedule: Q04DX003 (ip), vehicle: water, evaluated on day 40) was 104 % of control, the T/C (dose: 1.8 mg/kg/injection, schedule: Q04DX003 (ip), vehicle: water, evaluated on day 60) was 100 (3×), 104, 117, 125, 126 % of control and the T/C (dose: 1.8 mg/kg/injection, schedule: Q04DX003 (ip), vehicle: water, evaluated on day 90) was 133 % of control. The survivor count (dose: 1.8 mg/kg/injection, schedule: Q04DX003 (ip), vehicle: water) was 1 of 8, the T/C (dose: 2.0 mg/kg/injection, schedule: Q01DX001 (ip), vehicle: saline, evaluated on day 5) was 118, 122, 131, 135, 137, 141, 146 % of control and the T/C (dose: 2.0 mg/kg/injection, schedule: Q01DX001 (ip), vehicle: saline, evaluated on day 30) was 137 % of control. The T/C (dose: 2.0 mg/kg/injection, schedule: Q01DX001 (ip), vehicle: saline, evaluated on day 60) was 122, 131, 134, 135, 146 % of control, the T/C (dose: 2.0 mg/kg/injection, schedule: Q01DX001 (ip), vehicle: water, evaluated on day 5) was 117 and 127 % of control and the T/C (dose: 2.0 mg/kg/injection, schedule: Q01DX001 (ip), vehicle: water, evaluated on day 21) was 117 % of control. The T/C (dose: 2.0 mg/kg/injection, schedule: Q01DX001 (ip), vehicle: water, evaluated on day 30) was 127 % of control, the T/C (dose: 2.0 mg/kg/injection, schedule: Q01DX009 (ip), vehicle: water) was 131 % of control and the T/C (dose: 2.0 mg/kg/injection, schedule: Q03HX008 (ip), vehicle: water, evaluated on day 5) was 60 % of control. For the same molecule, the T/C (dose: 2.0 mg/kg/injection, schedule: Q03HX008 (ip), vehicle: water, evaluated on day 30) was 93 % of control [9 of 10 alive], the survivor count (dose: 2.0 mg/kg/injection, schedule: Q03HX008 (ip), vehicle: water) was 5 of 8 and 8 of 8 and the survivor count (dose: 2.0 mg/kg/injection, schedule: Q03HX024 (ip), vehicle: water) was 7 of 8 and 10 of 10. The T/C (dose: 2.0 mg/kg/injection, schedule: Q04DX003 (ip), vehicle: water) was 129 % of control, the T/C (dose: 2.0 mg/kg/injection, schedule: Q## X001 (ip), vehicle: saline) was 141 % of control and the T/C (dose: 2.0 mg/kg/injection, schedule: Q##DX001 (ip), vehicle: saline) was 134 % of control. The T/C (dose: 2.5 mg/kg/injection, schedule: Q01DX001 (ip), vehicle: water, evaluated on day 5) was 130 (2×) and 132 % of control, the T/C (dose: 2.5 mg/kg/injection, schedule: Q01DX001 (ip), vehicle: water, evaluated on day 30) was 118 and 122 % of control and the T/C (dose: 2.5 mg/kg/injection, schedule: Q01DX001 (ip), vehicle: water, evaluated on day 46) was 133 % of control. For the same molecule, the T/C (dose: 2.5 mg/kg/injection, schedule: Q01DX001 (ip), vehicle: water, evaluated on day 61) was 126 % of control, the T/C (dose: 2.5 mg/kg/injection, schedule: Q04DX003 (ip), vehicle: water, evaluated on day 5) was 128 % of control and the T/C (dose: 2.5 mg/kg/injection, schedule: Q04DX003 (ip), vehicle: water, evaluated on day 46) was 127 % of control. The T/C (dose: 2.5 mg/kg/injection, schedule: Q04DX003 (ip), vehicle: water, evaluated on day 61) was 131 % of control, the T/C (dose: 2.5 mg/kg/injection, schedule: Q08DX002 (ip), vehicle: water, evaluated on day 30) was 125 % of control and the T/C (dose: 2.5 mg/kg/injection, schedule: Q08DX002 (ip), vehicle: water, evaluated on day 61) was 136 % of control. For the same molecule, the T/C (dose: 3.0 mg/kg/injection, schedule: Q01DX001 (ip), vehicle: water, evaluated on day 7) was 107 and 118 % of control, the T/C (dose: 3.0 mg/kg/injection, schedule: Q01DX001 (ip), vehicle: water, evaluated on day 24) was 122 % of control and the T/C (dose: 3.0 mg/kg/injection, schedule: Q01DX001 (ip), vehicle: water, evaluated on day 30) was 107 and 130 % of control. The T/C (dose: 3.0 mg/kg/injection, schedule: Q01DX001 (ip), vehicle: water, evaluated on day 33) was 127 % of control, the T/C (dose: 3.0 mg/kg/injection, schedule: Q01DX001 (ip), vehicle: water, evaluated on day 60) was 95 and 118 % of control and the T/C (dose: 3.0 mg/kg/injection, schedule: Q01DX005 (ip), vehicle: water, evaluated on day 5) was 96 % of control. The T/C (dose: 3.0 mg/kg/injection, schedule: Q01DX005 (ip), vehicle: water, evaluated on day 60) was 96 % of control, the T/C (dose: 3.0 mg/kg/injection, schedule: Q01DX005 (ip), vehicle: water, evaluated on day 90) was 122 % of control and the survivor count (dose: 3.0 mg/kg/injection, schedule: Q01DX005 (ip), vehicle: water) was 10 of 10 and 8 of 8. For the same molecule, the T/C (dose: 3.0 mg/kg/injection, schedule: Q01DX005 (sc), vehicle: water) was 130 % of control, the survivor count (dose: 3.0 mg/kg/injection, schedule: Q01DX009 (ip), vehicle: water) was 8 of 8 and the T/C (dose: 3.0 mg/kg/injection, schedule: Q03HX008 (ip), vehicle: water, evaluated on day 5) was 35, 51 (2×), 59, 68, 73 (3×), 75 % of control. The T/C (dose: 3.0 mg/kg/injection, schedule: Q03HX008 (ip), vehicle: water, evaluated on day 7) was 99, 105 (2×), 110, 119 % of control, the T/C (dose: 3.0 mg/kg/injection, schedule: Q03HX008 (ip), vehicle: water, evaluated on day 20) was 105 % of control and the T/C (dose: 3.0 mg/kg/injection, schedule: Q03HX008 (ip), vehicle: water, evaluated on day 30) was 110 % of control. The T/C (dose: 3.0 mg/kg/injection, schedule: Q03HX008 (ip), vehicle: water, evaluated on day 32) was 99 % of control, the T/C (dose: 3.0 mg/kg/injection, schedule: Q03HX008 (ip), vehicle: water, evaluated on day 60) was 95 and 119 % of control [7 of 8 alive] and the T/C (dose: 3.0 mg/kg/injection, schedule: Q03HX008 (ip), vehicle: water, evaluated on day 63) was 105 % of control. For the same molecule, the survivor count (dose: 3.0 mg/kg/injection, schedule: Q03HX008 (ip), vehicle: water) was 0 of 8 (2×), 2 of 8, 4 of 8, 6 of 8 (2×), 7 of 8 (3×), 8 of 8 (2×), the survivor count (dose: 3.0 mg/kg/injection, schedule: Q03HX008 (sc), vehicle: water) was 8 of 8 and the T/C (dose: 3.0 mg/kg/injection, schedule: Q03HX016 (ip), vehicle: water, evaluated on day 5) was 64 % of control. The T/C (dose: 3.0 mg/kg/injection, schedule: Q03HX016 (ip), vehicle: water, evaluated on day 60) was 100 % of control, the survivor count (dose: 3.0 mg/kg/injection, schedule: Q03HX016 (ip), vehicle: water) was 4 of 8 and 5 of 8 and the T/C (dose: 3.0 mg/kg/injection, schedule: Q03HX024 (ip), vehicle: water, evaluated on day 7) was 108 and 109 % of control. The T/C (dose: 3.0 mg/kg/injection, schedule: Q03HX024 (ip), vehicle: water, evaluated on day 32) was 109 % of control, the T/C (dose: 3.0 mg/kg/injection, schedule: Q03HX024 (ip), vehicle: water, evaluated on day 60) was 100 % of control and the T/C (dose: 3.0 mg/kg/injection, schedule: Q03HX024 (ip), vehicle: water, evaluated on day 63) was 105 % of control.
